Measurements reported in PubChem BioAssay AID652243 (Drosophila RNAi Screening Center, 2013).
The deposit covers about 24,000 reagents; this is a random part of those that have a named target and a result. Of all reagents, 246 (1%) were called active. 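Plates not normalised; calls are printed but the firefly/Renilla ratio behind them is not deposited; fold cut for lowering reported inconsistently.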 The raw values are shown without normalisation. Entries without a mark were called inactive. Names joined by + are all predicted targets of the reagent. Not given: the amount of reagent.

Aim: 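Fly genes required for human androgen receptor driven transcription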 (primary screen)
System: Drosophila S2R+ cells
Reagent: long dsRNA against Drosophila genes
Timing: 72 h (48 h, then 24 h hormone)
Conditions: synthetic androgen R1881 at 10 nM for 24 h
Detection: 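Firefly light from an androgen-responsive reporter and Renilla control light per well, raw and unnormalised, for each of two replicates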
Reading the numbers: firefly reporter light: higher = more light from androgen-responsive reporter; Renilla control light: higher = more constitutive control signal (cell number, transfection)
Hit rule: 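Hit when the log firefly-to-Renilla ratio dropped or increased by a fixed fold versus the mean of GFP or LacZ controls across duplicate plates; lowering cut given as 1.5 and as 3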
Calls: active = hit: reporter lowered or raised; inactive = no hit

no.	gene	DRSC id	firefly reporter light, replicate 1	firefly reporter light, replicate 2	Renilla control light, replicate 1	Renilla control light, replicate 2
1	Atg14 (Autophagy-related 14)	DRSC14421	90645	1.18e5	6.98e5	4.19e5
2	Atg14 (Autophagy-related 14)	DRSC27166	2.53e5	2.95e5	4.90e5	5.73e5
3	Gba1b (Glucocerebrosidase 1b)	DRSC21531	5.66e5	7.51e5	2.10e6	1.53e6
4	Ak6 (Adenylate kinase 6)	DRSC07274	4.93e5	3.57e5	1.51e6	1.69e6
5	Vta1 (Vesicle trafficking 1)	DRSC08604	4.94e5	5.53e5	2.74e6	2.69e6
6	Vta1 (Vesicle trafficking 1)	DRSC22848	3.45e5	8.09e5	1.20e6	2.16e6
7	CG43102	DRSC14797	4.51e5	7.85e5	1.09e6	1.93e6
8	CG43102	DRSC16239	1.83e5	1.35e5	1.13e6	1.14e6
9	CG43102	DRSC28809	6.40e5	6.58e5	1.00e6	1.17e6
10	CG32061	DRSC22605	7.49e5	7.33e5	1.74e6	1.04e6
11	ea (easter)	DRSC16939	1.37e5	1.24e5	1.86e6	2.30e6
12	ea (easter)	DRSC25595	5.95e5	4.83e5	7.80e5	6.87e5
13	CG17490	DRSC03797	1.71e5	1.39e5	1.41e6	9.48e5
14	CG17490	DRSC26780	4.33e5	3.91e5	6.50e5	5.96e5
15	S-Lap4 (Sperm-Leucylaminopeptidase 4)	DRSC10957	1.67e5	2.31e5	1.84e6	1.98e6
16	S-Lap4 (Sperm-Leucylaminopeptidase 4)	DRSC25977	3.10e5	5.03e5	9.35e5	9.36e5
17	CG13334	DRSC06369	72439	96192	1.46e6	1.46e6
18	CG12360 (retired record)	DRSC14505	85625	1.03e5	1.22e6	1.50e6
19	CG12301	DRSC09875	76943	73014	3.90e5	3.27e5
20	CG11267	DRSC09833	3.40e5	2.91e5	2.74e6	1.62e6
21	AstC-R1 (Allatostatin C receptor 1)	DRSC10799	2.73e5	3.05e5	2.29e6	2.97e6
22	AstC-R1 (Allatostatin C receptor 1)	DRSC29648	2.62e5	3.65e5	6.17e5	6.17e5
23	CG5877	DRSC19963	90609	94775	7.53e5	7.46e5
24	CG5877	DRSC28413	3.20e5	5.07e5	6.80e5	1.07e6
25	CG31922	DRSC21703	7.09e5	7.33e5	2.40e6	2.47e6
26	CG31922	DRSC26533	3.06e5	2.14e5	5.00e5	6.93e5
27	Ac13E (Adenylyl cyclase 13E)	DRSC19325	2.64e5	3.77e5	2.87e6	3.35e6
28	Ac13E (Adenylyl cyclase 13E)	DRSC27333	2.46e5	3.22e5	5.17e5	5.58e5
29	CG7133	DRSC11798	28630	21703	3.89e5	4.02e5
30	CG12857	DRSC06197	43621	1.16e5	6.74e5	6.74e5
31	CG11076	DRSC17197	2.89e5	2.91e5	2.65e6	1.66e6
32	CG2887	DRSC18235	4.22e5	3.94e5	3.90e6	3.27e6
33	CG2887	DRSC24167	9.27e5	7.39e5	7.83e5	8.38e5
34	Tango11 (Transport and Golgi organization 11)	DRSC03890	72856	1.18e5	2.69e5	3.43e5
35	Tango11 (Transport and Golgi organization 11)	DRSC03892	1.62e5	1.42e5	4.03e5	2.26e5
36	CG14634	DRSC17944	4.50e5	3.41e5	3.29e6	2.60e6
37	Smurf (SMAD specific E3 ubiquitin protein ligase)	DRSC07641	82148	78750	1.29e6	1.29e6
38	Smurf (SMAD specific E3 ubiquitin protein ligase)	DRSC29832	6.72e5	4.13e5	1.51e6	1.61e6
39	bisc (biscotti)	DRSC04083	8.37e5	7.58e5	2.60e6	3.15e6
40	bisc (biscotti)	DRSC28459	2.59e5	2.36e5	4.55e5	9.02e5
41	CR42722 + CR42723 + mRpS5 + 1 more	DRSC38640	9.99e5	9.04e5	2.69e6	2.28e6
42	CG3860	DRSC04425	1.30e6	5.10e5	1.71e6	9.11e5
43	Obp18a (Odorant-binding protein 18a)	DRSC19736	2.35e5	1.66e5	8.94e5	5.95e5
44	elav (embryonic lethal abnormal vision)	DRSC18772	51471	47995	6.39e5	3.00e5
45	CG8197	DRSC07105	3.29e5	2.61e5	2.17e6	2.21e6
46	Gas8 (Growth arrest specific protein 8)	DRSC22884	5.07e5	8.67e5	4.85e5	7.27e5
47	Gas8 (Growth arrest specific protein 8)	DRSC29253	4.09e5	4.52e5	1.60e6	1.37e6
48	Snmp2 (Sensory neuron membrane protein 2)	DRSC10228	2.07e5	2.68e5	2.71e6	2.90e6
49	Snmp2 (Sensory neuron membrane protein 2)	DRSC10843	67135	98039	1.12e6	1.01e6
50	elgi (early girl)	DRSC10242	31466	52751	3.40e5	2.91e5
51	elgi (early girl)	DRSC29665	2.33e5	4.72e5	4.72e5	4.72e5
52	CG5863	DRSC15898	1.65e5	84722	1.96e6	1.57e6
53	CG31267	DRSC15748	95308	91762	1.59e6	2.03e6
54	CG16813	DRSC24977	8.31e5	8.68e5	8.84e5	9.43e5
55	sav (salvador)	DRSC14681	1.79e5	2.01e5	2.77e6	2.71e6
56	sav (salvador)	DRSC14682	1.09e5	1.38e5	1.99e6	2.20e6
57	CG33795	DRSC37835	7.38e5	7.51e5	1.54e6	1.62e6
58	CG6878	DRSC10737	2.36e5	2.71e5	2.26e6	2.47e6

Part of the list above, limited to “firefly reporter light, replicate 1”.
Ak6 (Adenylate kinase 6) [DRSC07274]: 4.93e5
Vta1 (Vesicle trafficking 1) [DRSC08604]: 4.94e5
Vta1 (Vesicle trafficking 1) [DRSC22848]: 3.45e5
CG43102 [DRSC14797]: 4.51e5
CG43102 [DRSC16239]: 1.83e5
CG43102 [DRSC28809]: 6.40e5
CG32061 [DRSC22605]: 7.49e5
ea (easter) [DRSC16939]: 1.37e5
